# Results taken from PubChem BioAssay AID2685 (National Center for Advancing Translational Sciences (NCATS), 2010).
# The list shows a part of the results. These are further read-outs of the screen, such as a control signal, another cell line or another target. No call is given for them. Most of these compounds were active or inconclusive in the main read-out, so they are no random draw. The note in brackets gives the kind of curve behind each potency; many fits are weak.
# Assay: qHTS Assay for Lipid Storage Modulators in Drosophila S3 Cells;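 for cell number change: cells counted by Cell Tracker Red CMTPX staining in the red channel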
# Settings: BODIPY lipid droplet fluorescence, 18-24 h; for cell number change: measured here: cell count max response, cells fed with added oleic acid
# Procedure, shortened: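 Drosophila S3 cells got compounds at several concentrations plus oleic acid (400 uM solution). Laser-scanning cytometry with 488 nm excitation read lipid droplets at 500-530 nm and cells at 575-640 nm. Percent activity was relative to 20 uM Triacsin C.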
# [1] = measured here: lipid fluorescence (Fed channel) AC50, cells fed with added oleic acid
# [2] = measured here: cell number channel AC50, cells fed with added oleic acid
SMILES,cell number change [%],AC50 [1],AC50 [2]
CC(C)N1C(=O)CCC1C(=O)O (configuration not stated),-6.39,"0.731 µM [rising, single point]",
COC(=O)c1ccccc1S(=O)(=O)N1CCC(C(=O)OCC(=O)NC2CCCCC2C)CC1 (configuration not stated),11,"0.13 µM [falling, full curve, poor fit]","1.46 µM [rising, partial curve, poor fit]"
CCCc1nc2oc(C(=O)OCC)c(N)c2c2c1COC(C)(C)C2,-9.3,"0.461 µM [rising, full curve]",
CCCCC(=O)NCc1ccc(F)cc1,-56.5,"29.1 µM [falling, single point]","18.4 µM [falling, single point]"
Cc1cc(C(=O)CSC(C)c2nc3ccccc3c(=O)[nH]2)c(C)n1C (configuration not stated),24.2,"16.4 µM [rising, single point]",
CC(C)CN1C(=O)C(NC(=O)C2CC2)(C(F)(F)F)C2=C1CC(C)(C)CC2=O (configuration not stated),-26.9,"0.82 µM [falling, full curve, poor fit]","0.00411 µM [falling, full curve, poor fit]"
COCCN1C(=O)C(=O)/C(=C(/O)c2ccc(S(=O)(=O)N3CCCCC3)cc2)C1c1ccc(OC)cc1 (configuration not stated),28.7,"0.651 µM [rising, full curve, poor fit]",
CC(=O)c1ccc(NC(=O)c2sc3nc4n(c(=O)c3c2C)CCCCC4)cc1,,"29.1 µM [falling, single point]",
O=C(Cc1c[nH]c2ccccc12)NCc1ccc(Cl)cc1,-39.3,"3.66 µM [falling, full curve]","0.92 µM [falling, full curve]"
O=C(Cn1ccc([N+](=O)[O-])n1)N1CCCCCC1,-22.3,,
COc1ccc(NC(=O)c2sc3nc(C)nc(N4CCOCC4)c3c2C)c(OC)c1,,"3.66 µM [rising, partial curve, poor fit]",
COc1ccc(NC(=O)CSCc2ccccc2C)cc1,-0.407,,
Cc1ccc(NC(=O)c2ccc(NC(=O)C3CCCCC3C(=O)O)cc2)cc1 (configuration not stated),-0.578,"18.4 µM [rising, single point]",
CCc1ccc(-c2nnn(Cc3nc4ccccc4s3)n2)cc1,-9.14,"20.6 µM [rising, partial curve]",
C1CCN(c2nc3nonc3nc2N2CCCCC2)CC1,-4.33,"29.1 µM [rising, single point]",
CCOC(=O)c1cnc2c(ccc3ccccc32)c1N,-1.76,"7.31 µM [rising, partial curve, poor fit]",

# 4 of these compounds in another layout:
SMILES	cell number change [%]	AC50 [1]	AC50 [2]
COCCN1C(=O)C(=O)/C(=C(/O)c2ccc(S(=O)(=O)N3CCCCC3)cc2)C1c1ccc(OC)cc1 (configuration not stated)	28.7	0.651 µM [rising, full curve, poor fit]	
CC(=O)c1ccc(NC(=O)c2sc3nc4n(c(=O)c3c2C)CCCCC4)cc1		29.1 µM [falling, single point]	
O=C(Cc1c[nH]c2ccccc12)NCc1ccc(Cl)cc1	-39.3	3.66 µM [falling, full curve]	0.92 µM [falling, full curve]
O=C(Cn1ccc([N+](=O)[O-])n1)N1CCCCCC1	-22.3		
